Among the data in article doi:10.1101/2020.02.21.958371 are binding values, retold here.

Assay [1] deals with T1, ROS1-3xFLAG-3xHA (3xFLAG-3xHA-tagged ROS1 under its native promoter in the ros1-13 mutant) (Arabidopsis) (UniProt Q9SJQ6).
T1 sequence: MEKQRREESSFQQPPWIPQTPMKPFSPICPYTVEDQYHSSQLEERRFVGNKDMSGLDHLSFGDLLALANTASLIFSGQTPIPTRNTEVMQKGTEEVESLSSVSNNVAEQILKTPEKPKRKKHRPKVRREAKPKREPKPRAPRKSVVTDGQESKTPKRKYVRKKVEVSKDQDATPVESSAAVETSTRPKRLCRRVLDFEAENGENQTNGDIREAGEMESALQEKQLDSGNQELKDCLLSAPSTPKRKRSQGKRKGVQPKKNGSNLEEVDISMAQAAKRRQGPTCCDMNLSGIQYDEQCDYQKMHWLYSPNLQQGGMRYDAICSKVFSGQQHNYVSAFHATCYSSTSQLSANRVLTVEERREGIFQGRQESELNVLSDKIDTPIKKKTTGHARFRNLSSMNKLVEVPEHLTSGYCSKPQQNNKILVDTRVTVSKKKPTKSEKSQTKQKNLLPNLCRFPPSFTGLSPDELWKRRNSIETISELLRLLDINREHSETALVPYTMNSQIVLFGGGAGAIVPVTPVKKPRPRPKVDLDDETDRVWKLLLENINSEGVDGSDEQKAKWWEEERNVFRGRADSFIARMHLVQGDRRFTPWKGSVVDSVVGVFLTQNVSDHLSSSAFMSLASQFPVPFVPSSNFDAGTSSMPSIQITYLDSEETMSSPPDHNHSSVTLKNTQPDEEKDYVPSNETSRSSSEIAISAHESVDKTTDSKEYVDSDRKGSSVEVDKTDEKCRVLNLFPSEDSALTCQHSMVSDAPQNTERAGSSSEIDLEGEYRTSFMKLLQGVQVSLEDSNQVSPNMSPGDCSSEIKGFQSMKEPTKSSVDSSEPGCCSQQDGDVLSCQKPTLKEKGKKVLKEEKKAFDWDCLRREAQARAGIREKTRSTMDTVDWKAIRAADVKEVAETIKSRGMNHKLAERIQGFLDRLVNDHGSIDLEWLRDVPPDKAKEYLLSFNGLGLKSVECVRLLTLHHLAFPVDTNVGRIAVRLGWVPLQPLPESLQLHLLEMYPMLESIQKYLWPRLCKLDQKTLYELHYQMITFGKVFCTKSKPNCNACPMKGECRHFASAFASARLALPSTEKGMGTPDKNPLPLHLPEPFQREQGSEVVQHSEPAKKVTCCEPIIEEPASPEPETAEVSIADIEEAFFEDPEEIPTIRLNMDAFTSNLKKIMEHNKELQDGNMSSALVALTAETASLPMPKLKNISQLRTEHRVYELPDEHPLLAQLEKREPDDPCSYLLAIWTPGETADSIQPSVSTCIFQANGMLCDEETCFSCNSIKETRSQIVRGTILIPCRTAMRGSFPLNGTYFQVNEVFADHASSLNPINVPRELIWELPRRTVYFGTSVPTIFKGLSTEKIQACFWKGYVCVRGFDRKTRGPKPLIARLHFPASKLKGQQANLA
The assay can be described thus: affinity purification with mass spectrometry.

Assay [2] addresses 3xFLAG-RWD40 fusion driven by the RWD40 native promoter in the rwd40-1 mutant background (Arabidopsis). Description: affinity purification with mass spectrometry.

These are yes or no findings as the source states them, for the method shown. Binding seen in cells or lysates may run through a third protein. Here binding means that the protein was enriched with, or labelled near, the bait; the list need not be complete. For some assays here: Tags and fused reporters may be left off the sequences shown.

For RWD40, endogenous in Arabidopsis, in assay [1], the binding result is reported as “binds”.

B1: ROS1, endogenous in Arabidopsis (protein, UniProt Q9SJQ6 1-1393)
chain: MEKQRREESSFQQPPWIPQTPMKPFSPICPYTVEDQYHSSQLEERRFVGNKDMSGLDHLSFGDLLALANTASLIFSGQTPIPTRNTEVMQKGTEEVESLSSVSNNVAEQILKTPEKPKRKKHRPKVRREAKPKREPKPRAPRKSVVTDGQESKTPKRKYVRKKVEVSKDQDATPVESSAAVETSTRPKRLCRRVLDFEAENGENQTNGDIREAGEMESALQEKQLDSGNQELKDCLLSAPSTPKRKRSQGKRKGVQPKKNGSNLEEVDISMAQAAKRRQGPTCCDMNLSGIQYDEQCDYQKMHWLYSPNLQQGGMRYDAICSKVFSGQQHNYVSAFHATCYSSTSQLSANRVLTVEERREGIFQGRQESELNVLSDKIDTPIKKKTTGHARFRNLSSMNKLVEVPEHLTSGYCSKPQQNNKILVDTRVTVSKKKPTKSEKSQTKQKNLLPNLCRFPPSFTGLSPDELWKRRNSIETISELLRLLDINREHSETALVPYTMNSQIVLFGGGAGAIVPVTPVKKPRPRPKVDLDDETDRVWKLLLENINSEGVDGSDEQKAKWWEEERNVFRGRADSFIARMHLVQGDRRFTPWKGSVVDSVVGVFLTQNVSDHLSSSAFMSLASQFPVPFVPSSNFDAGTSSMPSIQITYLDSEETMSSPPDHNHSSVTLKNTQPDEEKDYVPSNETSRSSSEIAISAHESVDKTTDSKEYVDSDRKGSSVEVDKTDEKCRVLNLFPSEDSALTCQHSMVSDAPQNTERAGSSSEIDLEGEYRTSFMKLLQGVQVSLEDSNQVSPNMSPGDCSSEIKGFQSMKEPTKSSVDSSEPGCCSQQDGDVLSCQKPTLKEKGKKVLKEEKKAFDWDCLRREAQARAGIREKTRSTMDTVDWKAIRAADVKEVAETIKSRGMNHKLAERIQGFLDRLVNDHGSIDLEWLRDVPPDKAKEYLLSFNGLGLKSVECVRLLTLHHLAFPVDTNVGRIAVRLGWVPLQPLPESLQLHLLEMYPMLESIQKYLWPRLCKLDQKTLYELHYQMITFGKVFCTKSKPNCNACPMKGECRHFASAFASARLALPSTEKGMGTPDKNPLPLHLPEPFQREQGSEVVQHSEPAKKVTCCEPIIEEPASPEPETAEVSIADIEEAFFEDPEEIPTIRLNMDAFTSNLKKIMEHNKELQDGNMSSALVALTAETASLPMPKLKNISQLRTEHRVYELPDEHPLLAQLEKREPDDPCSYLLAIWTPGETADSIQPSVSTCIFQANGMLCDEETCFSCNSIKETRSQIVRGTILIPCRTAMRGSFPLNGTYFQVNEVFADHASSLNPINVPRELIWELPRRTVYFGTSVPTIFKGLSTEKIQACFWKGYVCVRGFDRKTRGPKPLIARLHFPASKLKGQQANLA
Consider B1, for which the binding result in assay [2] is listed as “binds”.
